The list shows a part of the results.
Each target was assayed with Cc1nc(Nc2n[nH]c3c2CN(C(=O)N[C@H](CN(C)C)c2ccccc2)C3(C)C)c2sccc2n1 (assay: log2 fold change, soluble protein after heating vs DMSO (PISA); higher = thermal stabilisation; K562 lysate, 10 uM; active = over 0.2 and 3.5 SD of the protein, either way, in both replicates (recomputed)).
Outline: (§1)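 A 30 min treatment with 10 μM compound was applied to crude K562 extract at 1 mg/mL protein in PBS pH 7.4 with 1 mM MgCl2. Heating for 3 min spanned 48°C-58°C, after which aliquots were pooled, adjusted to 0.5% NP-40 at 4°C and spun at 21,000xg for 90 min. TMTpro 16plex LC-MS/MS of the supernatant, with channel sums equalised, gave values recorded as log-two fold change in thermal stability against solvent controls, from duplicates.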

Sequences of proteins named here, by UniProt entry; tags and fusion partners are left off. A change or cut given only in a name is not applied to a line headed by its entry.
UniProt Q9Y692: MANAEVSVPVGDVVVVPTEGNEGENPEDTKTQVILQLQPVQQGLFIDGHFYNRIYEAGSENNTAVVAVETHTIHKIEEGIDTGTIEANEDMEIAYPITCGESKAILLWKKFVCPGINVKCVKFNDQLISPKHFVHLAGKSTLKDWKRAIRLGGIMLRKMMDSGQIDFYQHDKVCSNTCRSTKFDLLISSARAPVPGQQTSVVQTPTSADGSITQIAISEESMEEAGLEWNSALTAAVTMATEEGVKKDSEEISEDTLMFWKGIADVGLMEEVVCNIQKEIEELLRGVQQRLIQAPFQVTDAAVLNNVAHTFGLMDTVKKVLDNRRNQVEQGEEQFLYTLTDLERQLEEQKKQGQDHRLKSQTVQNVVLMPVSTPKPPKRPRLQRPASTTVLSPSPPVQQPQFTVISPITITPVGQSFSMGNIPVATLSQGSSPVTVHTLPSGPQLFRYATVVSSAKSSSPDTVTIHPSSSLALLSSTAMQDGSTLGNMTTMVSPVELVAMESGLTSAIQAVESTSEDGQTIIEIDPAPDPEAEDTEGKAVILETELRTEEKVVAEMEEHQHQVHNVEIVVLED
UniProt Q9Y2X7: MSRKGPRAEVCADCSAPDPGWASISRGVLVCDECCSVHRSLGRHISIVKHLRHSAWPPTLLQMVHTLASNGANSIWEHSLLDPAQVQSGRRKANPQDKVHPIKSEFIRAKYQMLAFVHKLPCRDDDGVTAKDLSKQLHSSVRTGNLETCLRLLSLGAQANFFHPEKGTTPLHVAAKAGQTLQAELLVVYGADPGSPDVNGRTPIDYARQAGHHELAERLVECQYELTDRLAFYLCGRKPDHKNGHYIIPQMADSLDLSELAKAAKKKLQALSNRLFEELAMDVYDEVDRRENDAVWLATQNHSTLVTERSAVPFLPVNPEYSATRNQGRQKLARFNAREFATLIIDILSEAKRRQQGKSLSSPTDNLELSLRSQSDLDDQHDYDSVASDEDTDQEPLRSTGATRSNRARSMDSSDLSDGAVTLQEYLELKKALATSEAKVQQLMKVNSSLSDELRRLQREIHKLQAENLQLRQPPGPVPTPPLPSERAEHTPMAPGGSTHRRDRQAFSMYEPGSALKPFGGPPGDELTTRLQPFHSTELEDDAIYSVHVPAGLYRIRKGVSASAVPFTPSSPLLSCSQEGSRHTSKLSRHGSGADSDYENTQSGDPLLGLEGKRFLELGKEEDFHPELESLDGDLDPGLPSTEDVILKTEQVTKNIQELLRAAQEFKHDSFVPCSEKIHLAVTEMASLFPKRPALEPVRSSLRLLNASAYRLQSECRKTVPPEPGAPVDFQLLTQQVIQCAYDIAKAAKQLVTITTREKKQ
UniProt Q99795: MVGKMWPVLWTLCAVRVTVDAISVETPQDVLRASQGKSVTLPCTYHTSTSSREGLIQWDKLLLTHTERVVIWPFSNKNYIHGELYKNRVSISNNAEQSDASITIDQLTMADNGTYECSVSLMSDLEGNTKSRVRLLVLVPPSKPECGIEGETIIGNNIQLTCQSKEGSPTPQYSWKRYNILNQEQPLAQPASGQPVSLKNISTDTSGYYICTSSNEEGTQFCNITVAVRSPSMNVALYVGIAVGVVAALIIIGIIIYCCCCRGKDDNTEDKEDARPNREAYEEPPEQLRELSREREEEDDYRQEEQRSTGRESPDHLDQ
UniProt Q92820: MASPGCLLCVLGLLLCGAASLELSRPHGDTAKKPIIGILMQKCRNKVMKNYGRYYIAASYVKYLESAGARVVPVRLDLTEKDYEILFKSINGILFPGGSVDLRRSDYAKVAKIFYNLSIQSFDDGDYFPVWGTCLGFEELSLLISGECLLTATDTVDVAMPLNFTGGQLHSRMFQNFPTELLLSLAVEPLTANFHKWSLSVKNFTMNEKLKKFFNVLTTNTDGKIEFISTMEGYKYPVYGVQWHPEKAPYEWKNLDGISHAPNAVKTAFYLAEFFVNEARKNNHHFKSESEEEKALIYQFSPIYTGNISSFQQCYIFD
UniProt Q13439: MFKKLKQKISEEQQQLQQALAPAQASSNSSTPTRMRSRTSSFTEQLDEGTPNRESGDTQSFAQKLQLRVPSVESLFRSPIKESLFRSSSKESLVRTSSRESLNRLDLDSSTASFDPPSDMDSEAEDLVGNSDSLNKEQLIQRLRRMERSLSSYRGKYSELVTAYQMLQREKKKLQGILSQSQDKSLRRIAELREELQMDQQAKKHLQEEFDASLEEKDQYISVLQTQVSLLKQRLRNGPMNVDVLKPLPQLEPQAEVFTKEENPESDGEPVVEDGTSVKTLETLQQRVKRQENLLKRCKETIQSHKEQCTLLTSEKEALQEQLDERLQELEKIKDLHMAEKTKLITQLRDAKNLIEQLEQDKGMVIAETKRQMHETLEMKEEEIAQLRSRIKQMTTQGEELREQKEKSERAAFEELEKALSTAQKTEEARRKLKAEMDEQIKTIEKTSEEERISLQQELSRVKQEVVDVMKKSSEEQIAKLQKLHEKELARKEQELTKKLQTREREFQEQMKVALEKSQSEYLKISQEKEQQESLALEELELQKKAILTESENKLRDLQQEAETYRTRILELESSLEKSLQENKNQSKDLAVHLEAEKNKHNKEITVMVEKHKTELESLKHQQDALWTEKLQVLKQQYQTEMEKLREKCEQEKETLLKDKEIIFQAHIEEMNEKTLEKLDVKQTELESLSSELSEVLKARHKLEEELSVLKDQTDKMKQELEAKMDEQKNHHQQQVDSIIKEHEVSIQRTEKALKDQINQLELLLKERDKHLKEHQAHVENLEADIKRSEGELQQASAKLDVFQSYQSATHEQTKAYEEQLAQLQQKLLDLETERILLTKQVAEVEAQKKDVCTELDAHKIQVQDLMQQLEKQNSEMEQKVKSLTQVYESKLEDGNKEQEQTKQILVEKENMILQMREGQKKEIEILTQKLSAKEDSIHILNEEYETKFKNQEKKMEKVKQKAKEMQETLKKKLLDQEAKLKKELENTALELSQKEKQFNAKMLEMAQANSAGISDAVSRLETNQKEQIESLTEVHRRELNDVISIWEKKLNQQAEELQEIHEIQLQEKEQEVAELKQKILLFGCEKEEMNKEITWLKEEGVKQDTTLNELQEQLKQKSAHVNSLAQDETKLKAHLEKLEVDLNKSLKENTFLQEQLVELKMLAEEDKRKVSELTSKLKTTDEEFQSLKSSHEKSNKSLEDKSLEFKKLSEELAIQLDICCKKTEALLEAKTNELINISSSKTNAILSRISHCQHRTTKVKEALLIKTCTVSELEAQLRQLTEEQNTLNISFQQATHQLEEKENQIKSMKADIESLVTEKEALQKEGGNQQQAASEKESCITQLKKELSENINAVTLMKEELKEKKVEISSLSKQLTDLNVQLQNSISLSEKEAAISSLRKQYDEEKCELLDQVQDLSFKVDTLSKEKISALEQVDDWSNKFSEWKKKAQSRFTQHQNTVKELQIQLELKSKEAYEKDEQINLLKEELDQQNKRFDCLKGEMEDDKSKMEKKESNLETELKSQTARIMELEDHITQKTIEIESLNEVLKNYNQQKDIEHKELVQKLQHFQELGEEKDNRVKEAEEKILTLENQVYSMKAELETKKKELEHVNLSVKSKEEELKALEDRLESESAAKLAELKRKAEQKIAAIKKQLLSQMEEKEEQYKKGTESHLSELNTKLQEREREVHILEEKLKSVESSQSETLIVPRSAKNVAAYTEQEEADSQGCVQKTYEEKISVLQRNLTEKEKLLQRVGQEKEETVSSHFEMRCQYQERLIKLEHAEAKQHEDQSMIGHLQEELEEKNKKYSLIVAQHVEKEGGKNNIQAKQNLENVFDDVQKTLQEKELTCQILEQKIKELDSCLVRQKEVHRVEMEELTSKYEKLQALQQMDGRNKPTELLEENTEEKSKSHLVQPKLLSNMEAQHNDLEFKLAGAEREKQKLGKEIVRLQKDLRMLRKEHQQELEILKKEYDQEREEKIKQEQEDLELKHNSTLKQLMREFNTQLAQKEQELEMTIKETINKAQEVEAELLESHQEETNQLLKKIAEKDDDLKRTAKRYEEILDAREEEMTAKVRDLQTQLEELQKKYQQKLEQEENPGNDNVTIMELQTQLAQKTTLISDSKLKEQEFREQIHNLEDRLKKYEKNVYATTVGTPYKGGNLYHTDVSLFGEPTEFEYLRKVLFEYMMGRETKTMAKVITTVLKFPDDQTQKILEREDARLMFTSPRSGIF
UniProt Q9UBI6: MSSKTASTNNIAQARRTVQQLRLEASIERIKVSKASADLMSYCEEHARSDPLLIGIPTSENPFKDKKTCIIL
UniProt Q9P2T1: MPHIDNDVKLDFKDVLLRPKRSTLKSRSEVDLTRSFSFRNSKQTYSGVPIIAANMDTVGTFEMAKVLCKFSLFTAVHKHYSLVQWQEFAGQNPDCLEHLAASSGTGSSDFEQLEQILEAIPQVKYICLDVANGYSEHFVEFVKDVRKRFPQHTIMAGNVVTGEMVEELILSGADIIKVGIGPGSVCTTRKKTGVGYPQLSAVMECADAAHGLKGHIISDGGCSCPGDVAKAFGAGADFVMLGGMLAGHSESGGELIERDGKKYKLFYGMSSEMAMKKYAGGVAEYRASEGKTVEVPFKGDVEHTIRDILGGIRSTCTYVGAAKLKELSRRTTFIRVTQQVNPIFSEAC
UniProt Q9NVN8: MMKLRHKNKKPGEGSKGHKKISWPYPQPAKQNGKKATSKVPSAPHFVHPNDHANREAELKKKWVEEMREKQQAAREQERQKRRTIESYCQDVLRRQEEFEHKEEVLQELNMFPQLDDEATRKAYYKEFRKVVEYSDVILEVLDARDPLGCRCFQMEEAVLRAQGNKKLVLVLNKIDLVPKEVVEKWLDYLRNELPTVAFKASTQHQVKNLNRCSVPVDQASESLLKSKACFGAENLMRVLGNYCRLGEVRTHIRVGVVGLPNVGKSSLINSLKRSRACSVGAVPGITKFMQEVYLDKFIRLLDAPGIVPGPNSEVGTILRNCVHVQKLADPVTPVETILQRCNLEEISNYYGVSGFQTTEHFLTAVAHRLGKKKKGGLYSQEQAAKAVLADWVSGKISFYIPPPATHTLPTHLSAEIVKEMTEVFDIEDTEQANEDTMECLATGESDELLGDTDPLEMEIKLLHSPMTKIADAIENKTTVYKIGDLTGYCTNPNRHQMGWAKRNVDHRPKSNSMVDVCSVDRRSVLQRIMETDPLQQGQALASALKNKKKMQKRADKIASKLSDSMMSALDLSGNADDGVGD
UniProt Q86SX6: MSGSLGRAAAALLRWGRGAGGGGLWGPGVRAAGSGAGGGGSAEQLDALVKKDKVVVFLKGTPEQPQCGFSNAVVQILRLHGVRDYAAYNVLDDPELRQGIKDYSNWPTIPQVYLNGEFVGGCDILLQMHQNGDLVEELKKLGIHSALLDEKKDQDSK
UniProt Q8N954: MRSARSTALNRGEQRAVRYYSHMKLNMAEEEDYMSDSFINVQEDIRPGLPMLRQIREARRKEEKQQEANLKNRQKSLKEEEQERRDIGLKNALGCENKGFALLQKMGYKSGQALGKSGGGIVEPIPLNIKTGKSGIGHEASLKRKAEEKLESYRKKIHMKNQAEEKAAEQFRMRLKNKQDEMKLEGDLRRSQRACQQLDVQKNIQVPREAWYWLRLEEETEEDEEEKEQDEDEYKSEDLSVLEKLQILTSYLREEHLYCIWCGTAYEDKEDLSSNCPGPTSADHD
UniProt Q9BRR8: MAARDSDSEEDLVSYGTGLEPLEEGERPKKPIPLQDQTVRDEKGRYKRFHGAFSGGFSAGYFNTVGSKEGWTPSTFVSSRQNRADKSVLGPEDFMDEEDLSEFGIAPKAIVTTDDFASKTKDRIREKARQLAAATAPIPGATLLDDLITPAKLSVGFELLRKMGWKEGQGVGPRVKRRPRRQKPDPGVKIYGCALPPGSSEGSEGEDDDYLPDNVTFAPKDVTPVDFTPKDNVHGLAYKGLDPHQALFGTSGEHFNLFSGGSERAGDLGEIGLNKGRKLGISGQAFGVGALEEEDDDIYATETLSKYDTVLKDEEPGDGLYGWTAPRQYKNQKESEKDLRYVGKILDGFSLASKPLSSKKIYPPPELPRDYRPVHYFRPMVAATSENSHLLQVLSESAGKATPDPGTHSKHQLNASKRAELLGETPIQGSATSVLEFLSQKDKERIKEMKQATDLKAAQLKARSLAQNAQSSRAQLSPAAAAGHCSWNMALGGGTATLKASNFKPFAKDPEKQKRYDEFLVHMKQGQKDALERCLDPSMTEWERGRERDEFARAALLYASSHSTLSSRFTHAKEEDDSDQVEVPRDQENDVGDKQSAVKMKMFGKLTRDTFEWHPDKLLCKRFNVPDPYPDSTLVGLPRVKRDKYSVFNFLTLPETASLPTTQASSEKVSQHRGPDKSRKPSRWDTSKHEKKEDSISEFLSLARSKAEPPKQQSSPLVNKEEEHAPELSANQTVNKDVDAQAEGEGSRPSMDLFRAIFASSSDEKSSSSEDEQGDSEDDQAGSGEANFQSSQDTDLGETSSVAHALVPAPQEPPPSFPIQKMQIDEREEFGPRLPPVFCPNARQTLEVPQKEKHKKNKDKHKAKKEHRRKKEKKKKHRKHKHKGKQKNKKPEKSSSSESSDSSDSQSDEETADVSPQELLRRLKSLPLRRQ

log2 fold change, inactive:
GMEB1 isoform 2 (UniProt Q9Y692) 0.06, GIT1 (UniProt Q9Y2X7) -0.062, GPA33 (UniProt Q99795) -0.093, GGH (UniProt Q92820) 0.065, GLUD1 (UniProt P00367) 0.029, GOLGA4 (UniProt Q13439) -0.267, GNG12 (UniProt Q9UBI6) -0.018, GMPR2 isoform 2 (UniProt Q9P2T1) 0.005, GNPTAB (UniProt Q3T906) 0.011, GNL3L (UniProt Q9NVN8) -0.004, GNAQ (UniProt P50148) 0.091, GLRX5 (UniProt Q86SX6) 0.007, GPATCH11 (UniProt Q8N954) 0.04, GMNN (UniProt O75496) -0.025, GM2A (UniProt P17900) -0.014, GMPPA (UniProt Q96IJ6) -0.005, GOPC (UniProt Q9HD26) 0.034, GPRASP2 (UniProt Q96D09) -0.033, GINM1 (UniProt Q9NU53) 0.102, GMEB1 (UniProt Q9Y692) -0.014, GMIP (UniProt Q9P107) -0.041, GLMP (UniProt Q8WWB7) 0.091, GPATCH1 (UniProt Q9BRR8) -0.133

What follows are targets tested with Cc1nc(Nc2ncc(C(=O)Nc3c(C)cccc3Cl)s2)cc(N2CCN(CCO)CC2)n1 [dasatinib] in the same assay as above.
Outline: as §1

log2 fold change, inactive:
GGACT (UniProt Q9BVM4) 0.074, GIT1 (UniProt Q9Y2X7) -0.05, GPA33 (UniProt Q99795) -0.077, GGH (UniProt Q92820) -0.003, GLUD1 (UniProt P00367) 0.031, GOLGA4 (UniProt Q13439) -0.072, GPATCH2L (UniProt Q9NWQ4) -0.034, GMPR2 isoform 2 (UniProt Q9P2T1) 0.039, GPLD1 (UniProt P80108) -0.255, GNPTAB (UniProt Q3T906) 0.054, GNL3L (UniProt Q9NVN8) 0.014, GNAQ (UniProt P50148) 0.042, GLTP (UniProt Q9NZD2) -0.002, GLRX5 (UniProt Q86SX6) 0.06, GPATCH11 (UniProt Q8N954) 0.018, GMNN (UniProt O75496) 0.014, GM2A (UniProt P17900) 0.051, GNA12 (UniProt Q03113) -0.019, GOLGB1 isoform 4 (UniProt Q14789) 0.076, GMPPA (UniProt Q96IJ6) -0.085, GOPC (UniProt Q9HD26) -0.033, GPBP1L1 (UniProt Q9HC44) -0.017, GMEB1 (UniProt Q9Y692) -0.007, GMIP (UniProt Q9P107) -0.097, GLMP (UniProt Q8WWB7) -0.22, GPATCH1 (UniProt Q9BRR8) 0.102

These targets were tested with Cc1ncc(-c2ccnc(Nc3ccc(S(C)(=O)=O)cc3)n2)n1C(C)C in the same assay as above.
Outline: as §1

log2 fold change, inactive:
GMEB1 isoform 2 (UniProt Q9Y692) 0.066, GIT1 (UniProt Q9Y2X7) -0.042, GPA33 (UniProt Q99795) -0.023, GGH (UniProt Q92820) 0.107, GLUD1 (UniProt P00367) -0.046, GOLGA4 (UniProt Q13439) -0.026, GNG12 (UniProt Q9UBI6) 0.078, GMPR2 isoform 2 (UniProt Q9P2T1) 0.025, GNPTAB (UniProt Q3T906) 0.046, GNL3L (UniProt Q9NVN8) -0.04, GNAQ (UniProt P50148) 0.068, GLRX5 (UniProt Q86SX6) 0.065, GPATCH11 (UniProt Q8N954) 0.011, GMNN (UniProt O75496) 0.007, GM2A (UniProt P17900) 0.241, GMPPA (UniProt Q96IJ6) -0.01, GOPC (UniProt Q9HD26) -0.009, GPRASP2 (UniProt Q96D09) 0.208, GINM1 (UniProt Q9NU53) -0.046, GMEB1 (UniProt Q9Y692) 0.031, GMIP (UniProt Q9P107) -0.058, GLMP (UniProt Q8WWB7) -0.029, GPATCH1 (UniProt Q9BRR8) 0.042

From the supplement of paper PMC10849652
